Counter-ions that a name gives are not always drawn. Hit rate of the full screen: of about 5,300 compounds, about 130 (2.5%) showed an effect of 50% or more. The list shows a part of the results.
System: M. mycetomatis strain mm55
Conditions: primary screen, metabolic activity vs growth control; 96 h, 2 µM; inhibitor

| Compound | % viability |
| --- | --- |
| CC(C)(S)[C@@H](N)C(=O)O [ONC0002780, penicillamine cuprimine] | 95.42% |
| O=C(O)C1CSCN1 (stereo not drawn) [ONC0002894, timonacic] | 133.4% |
| [H]/N=C(\N/C(=N/[H])NCCCCCCNC(=N)NC(=N)Nc1ccc(Cl)cc1)Nc1ccc(Cl)cc1 [ONC0000326, chlorhexidine dihydrochloride] | 77.24% |
| Cc1cccc(/C=N/Nc2cc(N3CCOCC3)nc(OCCc3ccccn3)n2)c1 [ONC0001860, apilimod] | 90.03% |
| CSc1ccc(C(=O)c2[nH]c(=O)[nH]c2C)cc1 [ONC0002172, enoximone] | 80.93% |
| COc1cc2c(c(OC)c1OC)-c1c(cc3c(c1OC)OCO3)C[C@H](C)[C@@](C)(O)C2 [ONC0001126, schisandrol b] | 73.98% |
| NC(C(=O)O)c1ccc(C(=O)O)c(O)c1 (stereo not drawn) [ONC0002596, 4carboxy3hydroxyphenylglyciners] | 58.45% |
| Cn1c(/C=C/C(=O)NO)ccc1/C=C/C(=O)c1cccc(F)c1 [ONC0001259, mc1568] | 75.09% |
| CCCCCCCCCCCCCCOC(=O)c1cccnc1 [ONC0003671, tetradecyl nicotinate] | 79.3% |
| O=C(CC(c1ccccc1)c1ccccc1)N1CCN(C(c2ccccc2)c2ccccc2)CC1 [ONC0000910, np118809] | 59.72% |
| Cn1c(=O)c2c(ncn2CC(=O)O)n(C)c1=O [ONC0002325, acefylline] | 70.25% |
| CCOC(=O)Nc1cc2c(c(N)n1)NC(c1ccccc1)=C(C)N2 [ONC0002128, mivobulin] | 3.846% |
| CCCCCCCCCCC[C@@H](C[C@@H]1OC(=O)[C@H]1CCCCCC)OC(=O)[C@H](CC(C)C)NC=O [ONC0003882, orlistat] | 71.01% |
| NC(=O)c1cc[n+](CC2=C(C(=O)O)N3C(=O)[C@@H](NC(=O)Cc4cccs4)[C@H]3SC2)cc1 [ONC0005624, cefalonium] | 95.75% |
| COc1cc(OCc2cccc(-c3ccccc3)c2C)cc(OC)c1CN1CCCC[C@H]1C(=O)O [ONC0004249, bms1] | 55.43% |
| CC(C)(C)n1nc(-c2ccc(Cl)cc2)c2c(N)ncnc21 [ONC0001827, pp2] | 83.22% |
| CS(=O)(=O)c1cccc(CNc2nc(Nc3ccc4c(c3)CCC(=O)N4)ncc2C(F)(F)F)c1 [ONC0002648, pf573228] | 80.9% |
| CC(C)=CCC/C(C)=C/CC/C(C)=C/CC/C(C)=C/CC1=C(C)C(=O)c2ccccc2C1=O [ONC0005539, menatetrenone] | 92.52% |
| C[C@H](C[C@H](N)C(=O)O)C(=O)O [ONC0001938, sym 2081] | 90.01% |
| C[N+](C)(CCOc1ccccc1)Cc1ccccc1 [ONC0004004, bephenium hydroxynapthoate] | 58.57% |
| Cn1nnnc1SCC1=C(C(=O)O)N2C(=O)[C@@H](NC(=O)[C@H](OC=O)c3ccccc3)[C@H]2SC1 [ONC0000559, cefamandole nafate] | 111.5% |

| Compound | % viability |
| --- | --- |
| CCCC[C@@H](NC(=O)[C@@H](Cc1cn(C(=O)OC)c2ccccc12)NC(=O)[C@H](CC(C)(C)C)NC(=O)N1[C@H](C)CCC[C@@H]1C)C(=O)O [ONC0002254, bq788 sodium salt] | 82.31% |
| CNC(=O)Oc1ccccc1OC(C)C [ONC0003282, propoxur] | 56.04% |
| CNC(=O)[C@H](Cc1ccccc1)NC(=O)[C@H](CC(C)C)[C@H](CSc1cccs1)C(=O)NO [ONC0005180, batimastat bb94] | 86.23% |
| Cc1nc2ccc(CN(C)c3ccc(C(=O)N[C@@H](CCC(=O)O)C(=O)O)s3)cc2c(=O)[nH]1 [ONC0004884, raltitrexed tomudex] | 134.6% |
| CCOC(=O)[C@H](CCc1ccccc1)N[C@@H](C)C(=O)N1CCC[C@H]1C(=O)O [ONC0000561, enalapril maleate] | 109.8% |
| Cc1cccc(-c2n[nH]cc2-c2ccc3ncccc3n2)n1 [ONC0005169, repsox] | 79.46% |
| Cc1cc(Cn2cnc3c2C[C@@H](C(=O)O)N(C(=O)C(c2ccccc2)c2ccccc2)C3)ccc1N(C)C [ONC0001738, pd123319] | 114.8% |
| O=C1CC2(CCCC2)CC(=O)N1CCNCC1COc2ccccc2O1 (stereo not drawn) [ONC0001596, mdl73005ef] | 68.7% |
| CSc1ccc(C(=O)/C=C/c2cc(C)c(OC(C)(C)C(=O)O)c(C)c2)cc1 [ONC0001336, elafibranor] | 75.62% |
| C[C@@H]1CN(CC(=O)Nc2ccc3c(c2)Cc2cccc(-c4cc(=O)cc(N5CCOCC5)o4)c2S3)C[C@H](C)O1 [ONC0004617, ku60019] | 84.3% |
| CC[N+](CC)(CC)CCC(O)(c1ccccc1)C1CCCCC1 (stereo not drawn) [ONC0002920, tridihexethyl] | 61.4% |
| N=C(N)c1ccc(-c2ccc(-c3ccc(C(=N)N)cc3)o2)cc1 [ONC0003070, furamidine] | 108.4% |
| CCCCC(=O)O[C@]1(C(=O)CO)CC[C@H]2[C@@H]3CCC4=CC(=O)CC[C@]4(C)[C@H]3[C@@H](O)C[C@@]21C [ONC0004200, hydrocortisone valerate] | 91.76% |
| CCc1cccc2c3c([nH]c12)C(CC)(CC(=O)O)OCC3 (stereo not drawn) [ONC0003226, etodolac] | 127.6% |
| Cc1noc(NS(=O)(=O)c2ccc(N)cc2)c1C [ONC0000473, sulfisoxazole] | 62.85% |
| Cc1nc(N)sc1-c1ccnc(Nc2ccc(N3CCOCC3)cc2)n1 [ONC0004675, cyc116] | 105% |
| O=C(OCCN1CCOCC1)c1cccnc1Nc1cccc(C(F)(F)F)c1 [ONC0003393, morniflumate] | 98.78% |
| CN(C)CCCO[C@@H]1[C@H]2OC(C)(C)O[C@H]2O[C@@H]1[C@H](O)CO [ONC0002945, amiprilose] | 76.31% |
| C[C@]12CC[C@@H]3c4ccc(O)cc4CC[C@H]3[C@@H]1C[C@@H](O)[C@@H]2O [ONC0000740, estriol] | 68% |
| CC(=O)NC1CCSC1=O (stereo not drawn) [ONC0003132, citiolone] | 73.4% |
| CC1=C(CC(=O)O)c2cc(F)ccc2/C1=C\c1ccc([S+](C)[O-])cc1 (stereo not drawn) [ONC0000584, sulindac] | 106.5% |

3 compounds from above, arranged by SMILES length, smallest number first:

| Compound | % viability |
| --- | --- |
| CCOC(=O)[C@H](CCc1ccccc1)N[C@@H](C)C(=O)N1CCC[C@H]1C(=O)O [ONC0000561, enalapril maleate] | 109.8% |
| CNC(=O)[C@H](Cc1ccccc1)NC(=O)[C@H](CC(C)C)[C@H](CSc1cccs1)C(=O)NO [ONC0005180, batimastat bb94] | 86.23% |
| CCCCC(=O)O[C@]1(C(=O)CO)CC[C@H]2[C@@H]3CCC4=CC(=O)CC[C@]4(C)[C@H]3[C@@H](O)C[C@@]21C [ONC0004200, hydrocortisone valerate] | 91.76% |

(cont.)

| Compound | % viability |
| --- | --- |
| CC(Oc1c(Cl)cccc1Cl)C1=NCCN1 (stereo not drawn) [ONC0002828, lofexidine hydrochloride] | 114.1% |
| Cc1cc(-c2cc(O)ccc2Cl)cc2nnc(Nc3ccc(OCCN4CCCC4)cc3)nc12 [ONC0000917, tg 100572 hydrochloride] | 85.74% |
| C=CC(=O)Nc1ccc2ncnc(Nc3ccc(OCc4cccc(F)c4)c(Cl)c3)c2c1 [ONC0004965, ast1306] | 81.71% |
| O=C(O)c1ccc(/C=C2/SC(=S)N(c3cccc(C(F)(F)F)c3)C2=O)cc1 [ONC0002610, cftrinh172] | 70.31% |
| C=CC(=O)N1CCC[C@@H](n2nc(-c3ccc(Oc4ccccc4)cc3)c3c(N)ncnc32)C1 [ONC0005245, pci32765 ibrutinib] | 175% |
| O=C1N=C(N2CCOCC2)CN1c1ccc(Cl)cc1 [ONC0002463, imepitoin] | 85.78% |
| CC(=O)N1CCN(CCOc2ccc(C3CCN(C4=Nn5c(nnc5C(F)(F)F)CC4)CC3)cc2)CC1 [ONC0004456, azd3514] | 126.2% |
| O=C(O)c1ccccc1C(=O)Nc1ccc(-c2ccccc2)cc1 [ONC0001695, kartogenin] | 57.41% |
| O=C(NC(O)C(Cl)(Cl)Cl)NC(O)C(Cl)(Cl)Cl (stereo not drawn) [ONC0002412, dicloralurea] | 111.8% |
| O=C1N(c2ccccc2)c2ccccc2C1(Cc1ccncc1)Cc1ccncc1 [ONC0001627, linopirdine] | 73.45% |
| CC1CCC2C(C)(C)C3CC12CCC3(C)O (stereo not drawn) [ONC0003809, cedrol] | 64.15% |
| COc1c(OCCCN2CCOCC2)ccc2c1N=C(NC(=O)c1cnc(N)nc1)N1CCN=C21 [ONC0000873, copanlisib] | 88.34% |
| CC(C)COC(=O)c1ccc(N)cc1 [ONC0002977, isobutamben] | 68.2% |
| Cc1ccccc1N1C(=O)c2cc(S(N)(=O)=O)c(Cl)cc2NC1C (stereo not drawn) [ONC0005510, metolazone] | 74.76% |
| O=C(O)CNC(=O)c1ccccc1I [ONC0003784, 2iodohippuricacid] | 136.6% |
| Cc1cc(-n2c(=O)[nH]c(=O)n(C)c2=O)ccc1Oc1ccc(SC(F)(F)F)cc1 [ONC0004051, toltrazuril] | 117.7% |
| O=[N+]([O-])c1cnc(Sc2nnc(O)n2-c2ccc3c(c2)OCCO3)s1 [ONC0000158, bi78d3] | 83.73% |
| C=CC1=C(C(=O)O)N2C(=O)[C@@H](NC(=O)/C(=N\OCC(=O)O)c3csc(N)n3)[C@H]2SC1 [ONC0005545, cefixime] | 131.1% |
| CN1C(=O)CCS(=O)(=O)C1c1ccc(Cl)cc1 (stereo not drawn) [ONC0003875, chlormezanone] | 63.41% |
| CCS(=O)(=O)N(Cc1cccnc1)c1cccc(-c2ccc(C#N)cc2)c1 [ONC0001620, cbipes] | 66.8% |
| C[C@]12CCC(=O)C[C@@H]1CC[C@@H]1[C@@H]2CC[C@]2(C)C=CC[C@@H]12 [ONC0002090, 5androstenone] | 72.4% |

Source: PMC12670160, “A drug-repurposing screen of FDA- and EMA-approved drugs identifies two NF-κB inhibitors active against eumycetoma” (Journal of Antimicrobial Chemotherapy, 2025)
